This is one part of the list.

Protein sequences, listed by entry. Tags and fused reporters are not part of them. Lines headed by an entry give the natural chain unless they say otherwise; changes in a name come on top.
UniProt Q9Y3Z3: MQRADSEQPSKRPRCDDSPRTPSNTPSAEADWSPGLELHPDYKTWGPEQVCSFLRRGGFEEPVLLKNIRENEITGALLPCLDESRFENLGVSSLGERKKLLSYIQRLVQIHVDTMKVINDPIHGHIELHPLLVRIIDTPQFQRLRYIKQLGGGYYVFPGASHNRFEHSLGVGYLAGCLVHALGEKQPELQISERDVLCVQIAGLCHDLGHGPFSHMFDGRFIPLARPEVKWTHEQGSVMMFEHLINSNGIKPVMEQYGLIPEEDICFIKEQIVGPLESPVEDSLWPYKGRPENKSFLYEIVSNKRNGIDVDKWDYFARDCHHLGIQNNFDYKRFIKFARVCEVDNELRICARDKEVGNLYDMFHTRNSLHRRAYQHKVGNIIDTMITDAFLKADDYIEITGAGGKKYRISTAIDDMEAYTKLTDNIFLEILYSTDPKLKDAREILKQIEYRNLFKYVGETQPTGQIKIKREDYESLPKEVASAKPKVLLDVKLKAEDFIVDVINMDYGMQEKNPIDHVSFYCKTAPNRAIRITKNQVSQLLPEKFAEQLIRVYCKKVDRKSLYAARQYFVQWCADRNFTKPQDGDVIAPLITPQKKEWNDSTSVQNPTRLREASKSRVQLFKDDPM
UniProt P23921: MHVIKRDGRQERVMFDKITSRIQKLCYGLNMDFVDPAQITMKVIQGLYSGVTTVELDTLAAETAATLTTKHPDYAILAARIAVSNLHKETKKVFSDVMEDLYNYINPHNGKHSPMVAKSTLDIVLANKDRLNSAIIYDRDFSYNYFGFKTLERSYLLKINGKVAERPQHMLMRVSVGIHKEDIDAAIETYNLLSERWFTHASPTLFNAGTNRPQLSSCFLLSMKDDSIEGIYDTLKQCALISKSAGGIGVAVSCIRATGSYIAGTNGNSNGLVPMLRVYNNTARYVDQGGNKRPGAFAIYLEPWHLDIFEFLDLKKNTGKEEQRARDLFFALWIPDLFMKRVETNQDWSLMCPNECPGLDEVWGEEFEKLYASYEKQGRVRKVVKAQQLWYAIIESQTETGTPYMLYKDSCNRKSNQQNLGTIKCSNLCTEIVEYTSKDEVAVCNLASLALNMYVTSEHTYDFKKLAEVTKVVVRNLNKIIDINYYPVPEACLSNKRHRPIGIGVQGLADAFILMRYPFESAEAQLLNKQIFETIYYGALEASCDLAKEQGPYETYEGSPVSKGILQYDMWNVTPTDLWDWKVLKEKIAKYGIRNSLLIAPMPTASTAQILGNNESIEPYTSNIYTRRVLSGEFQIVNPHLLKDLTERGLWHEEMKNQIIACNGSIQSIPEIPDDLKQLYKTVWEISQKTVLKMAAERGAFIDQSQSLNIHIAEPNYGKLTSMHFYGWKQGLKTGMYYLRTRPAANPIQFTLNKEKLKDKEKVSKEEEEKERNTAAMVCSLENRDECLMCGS
UniProt Q9Y512: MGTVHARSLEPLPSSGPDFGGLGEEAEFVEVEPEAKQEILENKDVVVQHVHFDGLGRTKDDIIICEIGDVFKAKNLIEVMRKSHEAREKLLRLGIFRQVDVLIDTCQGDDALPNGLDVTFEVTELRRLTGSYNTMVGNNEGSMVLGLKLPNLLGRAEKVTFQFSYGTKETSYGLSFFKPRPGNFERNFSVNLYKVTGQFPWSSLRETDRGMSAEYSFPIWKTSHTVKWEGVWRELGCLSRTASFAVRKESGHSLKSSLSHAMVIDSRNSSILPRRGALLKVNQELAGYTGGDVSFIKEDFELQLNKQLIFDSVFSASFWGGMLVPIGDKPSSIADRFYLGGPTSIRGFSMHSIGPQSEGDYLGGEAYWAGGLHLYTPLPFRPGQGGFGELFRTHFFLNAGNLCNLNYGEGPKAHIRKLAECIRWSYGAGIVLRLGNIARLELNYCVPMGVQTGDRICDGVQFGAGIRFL
UniProt Q5VZM2, whole entry, looked up: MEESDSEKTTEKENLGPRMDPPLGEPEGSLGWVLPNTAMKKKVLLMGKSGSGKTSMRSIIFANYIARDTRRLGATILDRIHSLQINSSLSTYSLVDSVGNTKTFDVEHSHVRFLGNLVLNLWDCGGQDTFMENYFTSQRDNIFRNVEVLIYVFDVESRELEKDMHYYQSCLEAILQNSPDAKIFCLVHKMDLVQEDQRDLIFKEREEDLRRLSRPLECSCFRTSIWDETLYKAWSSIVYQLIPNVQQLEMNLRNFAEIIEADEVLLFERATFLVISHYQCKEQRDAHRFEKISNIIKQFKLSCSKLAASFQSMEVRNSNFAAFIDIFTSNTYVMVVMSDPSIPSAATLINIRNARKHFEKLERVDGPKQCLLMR
UniProt P56182: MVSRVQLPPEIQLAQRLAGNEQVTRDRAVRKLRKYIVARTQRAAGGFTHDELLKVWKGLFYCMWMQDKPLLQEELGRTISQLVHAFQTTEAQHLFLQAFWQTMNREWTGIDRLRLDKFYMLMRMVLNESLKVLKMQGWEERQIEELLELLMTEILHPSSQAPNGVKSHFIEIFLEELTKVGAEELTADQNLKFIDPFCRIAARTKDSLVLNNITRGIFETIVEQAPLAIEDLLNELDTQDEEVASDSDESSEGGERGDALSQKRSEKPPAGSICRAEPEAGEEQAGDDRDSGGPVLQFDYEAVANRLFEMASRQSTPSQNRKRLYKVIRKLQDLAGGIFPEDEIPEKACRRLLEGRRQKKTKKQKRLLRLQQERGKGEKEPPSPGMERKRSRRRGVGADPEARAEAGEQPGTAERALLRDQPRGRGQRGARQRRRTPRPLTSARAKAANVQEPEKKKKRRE
UniProt Q5K651: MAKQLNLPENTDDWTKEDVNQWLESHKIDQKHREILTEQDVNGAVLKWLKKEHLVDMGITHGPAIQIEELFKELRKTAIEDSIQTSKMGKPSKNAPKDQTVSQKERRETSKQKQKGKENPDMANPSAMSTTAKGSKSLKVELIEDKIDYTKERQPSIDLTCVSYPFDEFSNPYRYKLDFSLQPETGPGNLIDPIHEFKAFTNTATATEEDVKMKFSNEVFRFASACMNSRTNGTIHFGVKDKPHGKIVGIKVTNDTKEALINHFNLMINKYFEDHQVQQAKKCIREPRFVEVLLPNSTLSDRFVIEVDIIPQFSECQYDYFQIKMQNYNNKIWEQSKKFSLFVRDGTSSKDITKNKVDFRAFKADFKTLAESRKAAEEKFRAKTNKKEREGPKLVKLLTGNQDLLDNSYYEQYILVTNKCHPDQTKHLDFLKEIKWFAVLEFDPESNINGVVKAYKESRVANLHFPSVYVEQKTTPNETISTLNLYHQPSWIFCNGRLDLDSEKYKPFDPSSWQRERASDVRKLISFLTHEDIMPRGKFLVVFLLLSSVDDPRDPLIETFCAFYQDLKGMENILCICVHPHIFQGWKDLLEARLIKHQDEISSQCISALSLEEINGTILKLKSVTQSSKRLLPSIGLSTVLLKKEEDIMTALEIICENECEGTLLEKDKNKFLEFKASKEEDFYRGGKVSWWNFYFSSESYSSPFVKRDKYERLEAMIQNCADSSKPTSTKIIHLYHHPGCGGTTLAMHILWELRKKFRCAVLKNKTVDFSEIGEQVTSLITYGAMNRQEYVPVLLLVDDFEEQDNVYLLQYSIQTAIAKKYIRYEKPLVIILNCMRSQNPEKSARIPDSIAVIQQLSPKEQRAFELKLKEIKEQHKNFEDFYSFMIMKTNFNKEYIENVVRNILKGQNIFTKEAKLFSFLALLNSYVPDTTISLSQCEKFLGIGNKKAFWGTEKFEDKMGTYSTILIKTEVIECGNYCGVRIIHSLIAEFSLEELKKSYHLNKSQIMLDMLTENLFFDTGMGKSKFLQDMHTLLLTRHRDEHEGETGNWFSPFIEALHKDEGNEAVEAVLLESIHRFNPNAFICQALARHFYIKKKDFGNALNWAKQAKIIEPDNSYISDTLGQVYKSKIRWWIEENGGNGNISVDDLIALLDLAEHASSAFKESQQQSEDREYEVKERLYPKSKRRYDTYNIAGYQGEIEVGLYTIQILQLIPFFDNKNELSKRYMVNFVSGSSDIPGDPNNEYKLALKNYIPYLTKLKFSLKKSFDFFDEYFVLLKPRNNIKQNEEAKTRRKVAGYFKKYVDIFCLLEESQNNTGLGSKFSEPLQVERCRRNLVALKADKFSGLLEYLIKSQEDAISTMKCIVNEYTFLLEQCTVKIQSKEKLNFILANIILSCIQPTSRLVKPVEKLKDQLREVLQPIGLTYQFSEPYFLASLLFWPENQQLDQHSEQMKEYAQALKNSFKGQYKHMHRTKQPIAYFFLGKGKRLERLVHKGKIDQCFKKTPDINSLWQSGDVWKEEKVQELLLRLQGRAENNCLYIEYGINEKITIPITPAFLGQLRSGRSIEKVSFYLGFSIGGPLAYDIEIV

The source of these data is the supplement of paper PMC12067093, “Discovery and optimisation of a covalent ligand for TRIM25 and its application to targeted protein ubiquitination” (Chemical Science, 2025).

Compound in the assay: Cc1cc(ccc1-c1ccccc1)C(=O)N1CCCN(CC1)C(=O)CCl [compound 10]
Nature of the assay: probe-labelled cysteine peptide fold change vs DMSO (competition) (log2 fold change); higher = less target engagement (more negative = stronger competition). The following applies: THP-1, incubation time: 4 h.
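Note: competitive profiling in live THP-1 cells: cysteine peptides tagged with an iodoacetamide desthiobiotin (IA-DTB) probe, intensity after compound treatment relative to DMSO-treated cells.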

In the case of “SAMHD1_Q9Y3Z3_177_FEHSLGVGYLAGCLVHALGEK (UniProt Q9Y3Z3)”, the “probe-labelled cysteine peptide fold change” value (10 µM) is 0.0486 and the “probe-labelled cysteine peptide fold change” value (50 µM) amounted to 0.122.

For “RPS12_P25398_108_VVGCSCVVVK (UniProt P25398)”, the “probe-labelled cysteine peptide fold change” value is, setting by setting: (10 µM) 0.151; (50 µM) 0.157.

“SAMHD1_Q9Y3Z3_266_PVMEQYGLIPEEDICFIK (UniProt Q9Y3Z3)”: the “probe-labelled cysteine peptide fold change” value (10 µM) is -0.123 and the “probe-labelled cysteine peptide fold change” value (50 µM) stood at 0.34.

For the target “RRM1_P23921_787_NTAAMVCSLENRDECLMCGS (UniProt P23921)”, the “probe-labelled cysteine peptide fold change” value is -0.466 (10 µM) and -0.515 (50 µM).

On to “RPS2_P15880_182_IGKPHTVPCK (UniProt P15880)”, for which the “probe-labelled cysteine peptide fold change” value reads like this: (10 µM) -0.195; (50 µM) -0.301.

“RPS3_P23396_119_ACYGVLR (UniProt P23396)”: the “probe-labelled cysteine peptide fold change” value is -0.115 (10 µM) and 0.0839 (50 µM).

“SAMM50_Q9Y512_403_THFFLNAGNLCNLNYGEGPK (UniProt Q9Y512)”: the “probe-labelled cysteine peptide fold change” value runs as follows: (10 µM) 0.022; (50 µM) 0.169.

On to “RRAGB_Q5VZM2_280_ATFLVISHYQCK (UniProt Q5VZM2)”, for which the “probe-labelled cysteine peptide fold change” value is -0.0897 (10 µM) and 0.489 (50 µM).

Turning to “RPS12_P25398_69_LVEALCAEHQINLIK (UniProt P25398)”, the “probe-labelled cysteine peptide fold change” value runs as follows: (10 µM) 0.0876; (50 µM) -0.065.

Consider “SAMHD1_Q9Y3Z3_522_NPIDHVSFYCK (UniProt Q9Y3Z3)”, for which the “probe-labelled cysteine peptide fold change” value is, setting by setting: (10 µM) 0.0544; (50 µM) -0.443.

For “RRP1_P56182_62_GLFYCMWMQDKPLLQEELGR (UniProt P56182)”, the “probe-labelled cysteine peptide fold change” value (10 µM) was -0.237 and the “probe-labelled cysteine peptide fold change” value (50 µM) is -0.963.

On to “SAMD9_Q5K651_975+979_TEVIECGNYCGVR (UniProt Q5K651)”, for which the “probe-labelled cysteine peptide fold change” value reads like this: (10 µM) 0.381; (50 µM) 0.469.
